Measured values reported in publication PMC3107199.

Chains of the proteins cited; added tags and fusions are not shown. Residues count along the entry.
UniProt Q05825, residues 32-505: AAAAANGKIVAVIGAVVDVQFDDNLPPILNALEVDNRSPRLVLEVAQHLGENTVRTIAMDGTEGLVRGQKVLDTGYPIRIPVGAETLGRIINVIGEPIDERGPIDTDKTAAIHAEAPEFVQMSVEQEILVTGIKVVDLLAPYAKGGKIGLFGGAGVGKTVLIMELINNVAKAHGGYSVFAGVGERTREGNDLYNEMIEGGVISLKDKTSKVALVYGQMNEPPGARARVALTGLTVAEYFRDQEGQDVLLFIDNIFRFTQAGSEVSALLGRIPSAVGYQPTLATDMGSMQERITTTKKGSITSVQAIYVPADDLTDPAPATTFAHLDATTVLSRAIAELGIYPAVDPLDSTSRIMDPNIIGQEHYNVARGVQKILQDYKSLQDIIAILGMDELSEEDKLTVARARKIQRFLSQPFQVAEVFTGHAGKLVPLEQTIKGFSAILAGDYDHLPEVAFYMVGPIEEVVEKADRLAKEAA
UniProt P48609: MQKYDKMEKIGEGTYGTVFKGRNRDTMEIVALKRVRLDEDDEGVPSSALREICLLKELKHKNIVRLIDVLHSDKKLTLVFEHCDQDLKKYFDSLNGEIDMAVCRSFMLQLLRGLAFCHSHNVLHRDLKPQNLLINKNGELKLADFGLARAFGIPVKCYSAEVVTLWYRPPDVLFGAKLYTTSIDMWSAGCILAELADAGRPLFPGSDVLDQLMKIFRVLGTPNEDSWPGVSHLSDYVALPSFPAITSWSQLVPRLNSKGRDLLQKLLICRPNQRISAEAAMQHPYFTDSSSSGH
UniProt P11146: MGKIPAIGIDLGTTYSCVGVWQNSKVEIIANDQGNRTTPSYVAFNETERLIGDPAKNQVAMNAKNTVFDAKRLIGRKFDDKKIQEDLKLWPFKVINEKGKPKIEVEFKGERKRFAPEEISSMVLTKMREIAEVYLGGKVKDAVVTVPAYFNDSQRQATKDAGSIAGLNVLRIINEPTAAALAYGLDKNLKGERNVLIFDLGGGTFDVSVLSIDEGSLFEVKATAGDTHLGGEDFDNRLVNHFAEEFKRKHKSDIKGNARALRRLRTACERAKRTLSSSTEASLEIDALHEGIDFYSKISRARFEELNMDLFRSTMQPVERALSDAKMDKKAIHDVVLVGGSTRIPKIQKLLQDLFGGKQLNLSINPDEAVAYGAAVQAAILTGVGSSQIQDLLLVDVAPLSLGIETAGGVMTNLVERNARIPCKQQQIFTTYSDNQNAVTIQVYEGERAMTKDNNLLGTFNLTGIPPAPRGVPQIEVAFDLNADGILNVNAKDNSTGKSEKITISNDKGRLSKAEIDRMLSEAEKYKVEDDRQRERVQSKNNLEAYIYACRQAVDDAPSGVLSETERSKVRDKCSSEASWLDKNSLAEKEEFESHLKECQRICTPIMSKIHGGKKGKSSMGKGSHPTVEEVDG
UniProt P11147: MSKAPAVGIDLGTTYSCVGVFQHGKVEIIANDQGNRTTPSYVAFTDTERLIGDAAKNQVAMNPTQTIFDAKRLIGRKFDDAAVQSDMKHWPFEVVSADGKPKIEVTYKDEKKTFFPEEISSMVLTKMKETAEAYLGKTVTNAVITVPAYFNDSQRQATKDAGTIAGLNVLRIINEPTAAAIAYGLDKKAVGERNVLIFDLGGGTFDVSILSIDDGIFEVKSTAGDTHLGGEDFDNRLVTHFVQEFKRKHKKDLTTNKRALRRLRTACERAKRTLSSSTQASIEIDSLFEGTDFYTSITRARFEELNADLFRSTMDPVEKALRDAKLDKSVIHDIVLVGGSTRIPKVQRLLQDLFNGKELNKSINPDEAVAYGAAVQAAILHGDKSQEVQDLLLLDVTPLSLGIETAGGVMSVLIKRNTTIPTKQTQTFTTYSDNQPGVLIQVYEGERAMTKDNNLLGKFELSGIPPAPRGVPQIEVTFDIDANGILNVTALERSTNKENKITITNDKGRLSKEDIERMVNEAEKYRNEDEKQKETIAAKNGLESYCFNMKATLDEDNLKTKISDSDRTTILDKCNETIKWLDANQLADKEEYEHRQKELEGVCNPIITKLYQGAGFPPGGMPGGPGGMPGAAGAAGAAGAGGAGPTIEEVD
UniProt P82910: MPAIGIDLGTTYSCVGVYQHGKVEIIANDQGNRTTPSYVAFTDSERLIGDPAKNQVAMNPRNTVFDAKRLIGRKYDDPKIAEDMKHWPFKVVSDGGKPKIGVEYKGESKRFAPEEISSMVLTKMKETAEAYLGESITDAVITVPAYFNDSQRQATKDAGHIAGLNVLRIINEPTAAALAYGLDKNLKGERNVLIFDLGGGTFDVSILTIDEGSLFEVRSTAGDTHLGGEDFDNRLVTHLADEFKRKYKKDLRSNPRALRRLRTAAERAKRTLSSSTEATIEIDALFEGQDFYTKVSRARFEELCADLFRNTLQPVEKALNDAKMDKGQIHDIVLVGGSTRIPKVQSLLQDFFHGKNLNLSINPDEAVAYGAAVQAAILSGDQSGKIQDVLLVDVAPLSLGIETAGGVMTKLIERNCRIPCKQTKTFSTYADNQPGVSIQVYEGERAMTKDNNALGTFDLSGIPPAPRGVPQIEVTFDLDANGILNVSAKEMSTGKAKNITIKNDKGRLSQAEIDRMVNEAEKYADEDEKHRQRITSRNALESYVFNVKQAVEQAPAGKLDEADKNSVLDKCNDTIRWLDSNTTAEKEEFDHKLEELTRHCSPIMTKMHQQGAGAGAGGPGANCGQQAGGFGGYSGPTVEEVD
UniProt P10676: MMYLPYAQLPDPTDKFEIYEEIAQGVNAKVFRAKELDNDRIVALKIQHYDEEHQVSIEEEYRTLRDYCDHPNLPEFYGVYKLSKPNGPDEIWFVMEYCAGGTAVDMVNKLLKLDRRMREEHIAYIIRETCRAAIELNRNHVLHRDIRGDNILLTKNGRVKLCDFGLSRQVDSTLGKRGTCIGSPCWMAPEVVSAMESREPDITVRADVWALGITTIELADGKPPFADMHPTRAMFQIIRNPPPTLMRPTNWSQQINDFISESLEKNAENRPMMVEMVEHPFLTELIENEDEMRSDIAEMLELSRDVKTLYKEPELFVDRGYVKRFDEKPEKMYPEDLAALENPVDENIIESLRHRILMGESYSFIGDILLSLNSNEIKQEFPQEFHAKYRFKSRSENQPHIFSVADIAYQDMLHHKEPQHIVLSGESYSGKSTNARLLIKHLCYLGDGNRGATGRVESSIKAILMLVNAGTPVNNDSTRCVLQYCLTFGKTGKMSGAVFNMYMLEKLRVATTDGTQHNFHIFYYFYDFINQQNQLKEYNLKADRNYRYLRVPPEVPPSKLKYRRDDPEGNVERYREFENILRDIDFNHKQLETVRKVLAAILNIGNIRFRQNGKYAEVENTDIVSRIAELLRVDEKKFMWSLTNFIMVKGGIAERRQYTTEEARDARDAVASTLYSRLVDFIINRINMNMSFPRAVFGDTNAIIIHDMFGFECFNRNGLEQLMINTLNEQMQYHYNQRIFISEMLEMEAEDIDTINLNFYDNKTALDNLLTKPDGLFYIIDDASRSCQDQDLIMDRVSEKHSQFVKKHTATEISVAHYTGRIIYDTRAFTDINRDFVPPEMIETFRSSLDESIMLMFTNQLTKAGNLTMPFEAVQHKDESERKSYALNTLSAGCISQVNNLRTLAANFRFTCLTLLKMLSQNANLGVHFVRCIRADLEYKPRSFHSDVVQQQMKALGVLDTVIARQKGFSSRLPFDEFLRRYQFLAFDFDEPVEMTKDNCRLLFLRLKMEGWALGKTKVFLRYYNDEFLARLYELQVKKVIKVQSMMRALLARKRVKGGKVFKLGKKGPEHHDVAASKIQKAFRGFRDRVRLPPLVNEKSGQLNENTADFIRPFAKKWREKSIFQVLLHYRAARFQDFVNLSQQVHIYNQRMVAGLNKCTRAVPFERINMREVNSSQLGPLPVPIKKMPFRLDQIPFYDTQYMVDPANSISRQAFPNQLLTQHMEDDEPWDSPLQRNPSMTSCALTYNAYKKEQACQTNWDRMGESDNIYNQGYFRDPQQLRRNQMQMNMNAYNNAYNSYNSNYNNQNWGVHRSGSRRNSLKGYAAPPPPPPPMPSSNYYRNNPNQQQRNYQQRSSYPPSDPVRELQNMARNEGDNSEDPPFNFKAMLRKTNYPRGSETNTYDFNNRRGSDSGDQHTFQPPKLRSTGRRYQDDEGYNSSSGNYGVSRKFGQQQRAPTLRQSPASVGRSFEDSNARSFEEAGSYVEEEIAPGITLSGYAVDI
UniProt Q9W5R8: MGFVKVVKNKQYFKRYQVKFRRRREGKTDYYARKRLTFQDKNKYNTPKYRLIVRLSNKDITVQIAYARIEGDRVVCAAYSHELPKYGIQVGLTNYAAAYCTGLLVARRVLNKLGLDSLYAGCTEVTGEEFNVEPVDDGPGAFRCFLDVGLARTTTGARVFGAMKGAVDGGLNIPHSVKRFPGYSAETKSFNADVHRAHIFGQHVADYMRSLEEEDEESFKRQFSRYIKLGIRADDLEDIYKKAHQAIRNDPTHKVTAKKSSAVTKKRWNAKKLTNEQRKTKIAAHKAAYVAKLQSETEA
UniProt P06754: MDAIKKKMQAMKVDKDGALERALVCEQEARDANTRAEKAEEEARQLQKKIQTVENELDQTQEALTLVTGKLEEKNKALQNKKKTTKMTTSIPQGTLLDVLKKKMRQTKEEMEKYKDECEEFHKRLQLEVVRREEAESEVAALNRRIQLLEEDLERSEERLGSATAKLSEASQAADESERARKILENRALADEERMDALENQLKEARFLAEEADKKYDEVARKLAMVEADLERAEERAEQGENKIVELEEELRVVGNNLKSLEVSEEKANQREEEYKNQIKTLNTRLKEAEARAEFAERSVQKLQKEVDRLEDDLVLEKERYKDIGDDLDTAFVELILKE
UniProt P19351: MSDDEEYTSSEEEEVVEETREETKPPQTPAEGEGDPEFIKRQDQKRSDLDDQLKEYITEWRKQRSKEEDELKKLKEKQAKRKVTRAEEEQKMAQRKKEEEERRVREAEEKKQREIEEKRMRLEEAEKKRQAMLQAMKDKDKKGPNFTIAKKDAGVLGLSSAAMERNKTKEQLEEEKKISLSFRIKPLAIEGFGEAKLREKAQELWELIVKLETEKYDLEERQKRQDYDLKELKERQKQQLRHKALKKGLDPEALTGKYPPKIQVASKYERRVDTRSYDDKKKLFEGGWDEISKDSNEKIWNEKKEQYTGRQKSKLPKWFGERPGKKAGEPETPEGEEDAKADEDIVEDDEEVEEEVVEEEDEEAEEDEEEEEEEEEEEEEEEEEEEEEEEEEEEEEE
UniProt P06605: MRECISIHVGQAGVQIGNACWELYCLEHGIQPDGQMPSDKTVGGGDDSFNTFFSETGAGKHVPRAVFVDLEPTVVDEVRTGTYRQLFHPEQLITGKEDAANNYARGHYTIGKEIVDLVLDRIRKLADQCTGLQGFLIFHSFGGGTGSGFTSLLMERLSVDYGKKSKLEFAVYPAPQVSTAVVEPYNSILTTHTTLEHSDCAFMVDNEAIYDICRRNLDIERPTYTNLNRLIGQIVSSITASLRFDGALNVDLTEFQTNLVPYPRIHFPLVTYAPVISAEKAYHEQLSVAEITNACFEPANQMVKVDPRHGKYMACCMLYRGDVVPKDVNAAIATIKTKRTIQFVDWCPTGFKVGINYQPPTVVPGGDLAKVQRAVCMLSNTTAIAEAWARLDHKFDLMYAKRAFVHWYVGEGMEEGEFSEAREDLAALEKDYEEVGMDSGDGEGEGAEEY
UniProt P06604: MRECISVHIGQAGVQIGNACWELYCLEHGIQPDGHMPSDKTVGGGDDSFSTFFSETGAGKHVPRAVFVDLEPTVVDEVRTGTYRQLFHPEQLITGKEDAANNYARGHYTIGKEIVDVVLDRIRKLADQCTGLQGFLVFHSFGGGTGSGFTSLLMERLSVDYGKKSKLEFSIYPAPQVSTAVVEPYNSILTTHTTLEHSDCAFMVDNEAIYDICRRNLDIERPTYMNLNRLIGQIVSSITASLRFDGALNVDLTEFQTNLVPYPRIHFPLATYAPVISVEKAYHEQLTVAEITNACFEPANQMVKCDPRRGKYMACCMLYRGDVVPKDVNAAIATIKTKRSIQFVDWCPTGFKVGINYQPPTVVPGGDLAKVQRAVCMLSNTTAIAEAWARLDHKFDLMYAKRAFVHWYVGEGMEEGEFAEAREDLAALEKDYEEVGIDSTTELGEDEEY
UniProt P08841: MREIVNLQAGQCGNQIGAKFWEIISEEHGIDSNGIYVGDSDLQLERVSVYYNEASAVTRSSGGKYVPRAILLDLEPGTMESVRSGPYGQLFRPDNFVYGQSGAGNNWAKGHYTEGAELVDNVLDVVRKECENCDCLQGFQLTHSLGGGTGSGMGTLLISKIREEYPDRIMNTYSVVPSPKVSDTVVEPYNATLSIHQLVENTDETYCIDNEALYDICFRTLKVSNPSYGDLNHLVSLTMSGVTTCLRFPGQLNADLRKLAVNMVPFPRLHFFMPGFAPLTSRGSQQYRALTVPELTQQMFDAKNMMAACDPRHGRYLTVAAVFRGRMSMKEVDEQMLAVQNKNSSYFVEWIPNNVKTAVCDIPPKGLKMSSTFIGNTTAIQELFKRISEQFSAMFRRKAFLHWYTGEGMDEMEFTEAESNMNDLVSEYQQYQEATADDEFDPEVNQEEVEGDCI

Target: GST-Pur α fusion protein (Drosophila melanogaster) (UniProt Q95RR6)
Assay: affinity purification with mass spectrometry; GST-Pur α (GST alone as control) on glutathione beads packed as a column; dialysed and cleared wild-type adult fly head extract (20 mM Hepes pH 7.2, 0.1 M NaCl) run through; washed, eluted with 0.2, 0.6 and 2 M NaCl buffers; SDS gel, LC-MS/MS; only the target purified

| binding | Molecule |
| --- | --- |
| binds | ATP synthase β (from UniProt Q05825 32-505) |
| binds | Actin related protein 53D (from UniProt P45891 1-376) |
| binds | Aly (from UniProt Q9V3E7) |
| binds | Bellwether (from UniProt P35381 48-552) |
| binds | CG14648 (from UniProt Q9VN21) |
| binds | Calcium/calmodulin-dependent protein kinase II (from UniProt Q00168 1-530) |
| binds | Cdk5 (from UniProt P48609 1-294) |
| binds | Coracle (from UniProt Q9V8R9 1-1698) |
| binds | Glutathione S transferase E6 (from UniProt A1ZB71) |
| binds | Heat Shock protein cognate 2 (from UniProt P11146 1-633) |
| binds | Heat Shock protein cognate 4 (from UniProt P11147 1-651) |
| binds | Heat Shock protein cognate 5 (from UniProt P29845 1-686) |
| binds | Hsp70 Aa (from UniProt P82910 1-642) |
| binds | Hsp70 Ab (from UniProt P02825 1-642) |
| binds | Hsp70 Ba (from UniProt Q8INI8 1-641) |
| binds | Hsp70 Bb (from UniProt Q9BIS2 1-641) |
| binds | Hsp70 Bc (from UniProt Q9BIR7 1-641) |
| binds | Hsp 68 (from UniProt O97125 1-635) |
| binds | Lark (from UniProt Q94901 1-352) |
| binds | NinaC (from UniProt P10676 1-1501) |
| binds | Retinoid- and fatty acid-binding glycoprotein (from UniProt Q9V496 26-3351) |
| binds | Ribosomal protein L11 (from UniProt P46222 1-184) |

| binding | Molecule |
| --- | --- |
| binds | Ribosomal protein S20 (from UniProt P55828 1-120) |
| binds | Ribosomal protein l5 (from UniProt Q9W5R8 1-299) |
| binds | SF2 (from UniProt Q9V3W7) |
| binds | Tropomyosin 1 (from UniProt P06754 1-339) |
| binds | Upheld (from UniProt P19351 1-397) |
| binds | Vasa intronicgene (from UniProt Q9V426) |
| binds | endogenous Rm62 (from UniProt P19109 1-719) |
| binds | α Tubulin 84B (from UniProt P06603 1-450) |
| binds | α Tubulin 84D (from UniProt P06605 1-450) |
| binds | α Tubulin 85E (from UniProt P06604 1-449) |
| binds | β Tubulin 56D (from UniProt Q24560 1-447) |
| binds | β Tubulin 60D (from UniProt P08841 1-454) |
| binds | β Tubulin 85D (from UniProt P61857 1-446) |
| binds | Cleavage and polyadenylation specificity factor subunit CG7185 (protein, UniProt Q9VSH4 1-652) MADVVLDLYAEDLDKDFAGQAQDEFGGDGVDLYDDIGGPTESAASGGGGGGTPSADGAAGPGSGEPGERNSGGPNGVYHQSSGSLTPTMNRRYQLYVGNLTWWTTDQDIANSLRDIGVSDLQEVKFFENRANGQSKGFSVISLGSESSLRAVLDQLPKKEMHGQAPVVTYPSKQALTQFESLQKTRPVPPPQQNGPPRGPAPPSMGGGPMPTGHPGGPQGGGPPGHPPRGMNSIMQPGQYRPQHMSQVPQVGGPNSGPPRMQPPMHPQGGLMGNQQPPPRYPSAQGQWPGQRPGGPRPGPPNGPPQRPMFQGGPMGMPVRGPAGPDWRRPPMHGGFPPQGPPRGLPPAPGPGGPHGAPAPHVNPAFFNQPGGPAQHPGMGGPPHGAPGPQPGMNMPPQQGMNMTPQHGPPPQFAQHGPRGPWPPPQGKPPGPFPDPQQMGPQLTEVEFEEVMSRNRTVSSSAIARAVSDAAAGEYSSAIETLVTAISLIKQSKVAHDERCKILISSLQDTLHGIEAKSYNRRERSRSRERSHRSRQRRERSTSRYRERSRERERDRDRERERDGGSYRERSRSRERERQAPDHYRDDSRSVRPRKSPEPVVAEAAEAPSSKRYYEDRERYRSSDRERRDRDRDRDRERERDRDRREEHRSRH |
| binds | RNA binding protein 1 (protein, UniProt Q02427 1-144) MPRYREWDLACKVYVGNLGSSASKHEIEGAFAKYGPLRNVWVARNPPGFAFVEFEDRRDAEDATRALDGTRCCGTRIRVEMSSGRSRDRRRGEGGSSGRSGSGRYRITPSARTTSTATSSFYNINNLQQQPSSQPQPATFNLQL |
| binds | Histone H1 (protein, UniProt P02255 1-256) MSDSAVATSASPVAAPPATVEKKVVQKKASGSAGTKAKKASATPSHPPTQQMVDASIKNLKERGGSSLLAIKKYITATYKCDAQKLAPFIKKYLKSAVVNGKLIQTKGKGASGSFKLSASAKKEKDPKAKSKVLSAEKKVQSKKVASKKIGVSSKKTAVGAADKKPKAKKAVATKKTAENKKTEKAKAKDAKKTGIIKSKPAATKAKVTAAKPKAVVAKASKAKPAVSAKPKKTVKKASVSATAKKPKAKTTAAKK |
| binds | Myosin Alkali light chain (protein, UniProt P06742 1-155) MADVPKREVENVEFVFEVMGSPGEGIDAVDLGDALRALNLNPTLALIEKLGGTKKRNEKKIKLDEFLPIYSQVKKEKEQGCYEDFIECLKLYDKEENGTMLLAELQHALLALGESLDDEQVETLFADCMDPEDDEGFIPYSQFVQRLMSDPVVFD |
| binds | Tropomyosin 2 (protein, UniProt P09491 1-284) MDAIKKKMQAMKLEKDNAIDKADTCENQAKDANSRADKLNEEVRDLEKKFVQVEIDLVTAKEQLEKANTELEEKEKLLTATESEVATQNRKVQQIEEDLEKSEERSTTAQQKLLEATQSADENNRMCKVLENRSQQDEERMDQLTNQLKEARMLAEDADTKSDEVSRKLAFVEDELEVAEDRVRSGESKIMELEEELKVVGNSLKSLEVSEEKANQRVEEFKREMKTLSIKLKEAEQRAEHAEKQVKRLQKEVDRLEDRLFNEKEKYKAICDDLDQTFAELTGY |
| binds | X16 (protein, UniProt Q9V3V0 1-258) MSRHPSDRKVYVGDLGNNARKNDLEYVFGAYGSLRSVWIARNPPGFAFVEFESARDAADAVRGLDGRTVCGRRARVELSTGKYARSGGGGGGGGGGGGGGGLGGRDRGGGGRGDDKCYECGGRGHFARHCRERKARQRRRSNSFSRSRSTSRRRRTRSKSGTRSRSRSAGSVGRRSGRSNGRDENGSASRYSDHERNGSGAVDSPPPPKRRYEDEDDDRVRGSPRSRSRSRSASPAVRRGSPPRRRGDSSASRSVSRD |
| binds | Repressor splicing factor1 (protein, UniProt Q24491 1-200) MSSMGDQRGTRVYVGNLTDKVKKDDLEGEFTKYGKLNSVWIAFNPPGFAFVEFEHRDDAEKACDILNGSELLGSQLRVEISKGRPRQGRRGGPMDRGGRRGDFGRHSITSGGSGGGGFRQRGSSGSSSRHTERGYSSGRSGASSYNGREGGGSGFNRREVYGGGRDSSRYSSGSSASYGRTGGQSAGRFRSRSPVGNHRF |
| binds | endogenous Hts (protein, UniProt Q02645 1-1156) MTEVEQPPQNGIDPTAGEDDDNSKARPADIEQDMREMERRKRVEAIMGSKLFREELERIVDSARDGGAGASGILQQLSDIVGVPVSRVGSVFKSSNCMVPINDIRGVESMGYAKGEKILRCKLAATFRLLDLYGWTQGLGAQITARLKVDQEYFLVNPYGLLYHEITASALNKVDMQGQIVEQGTTNFGGNKSHFVLHSVVHAARPDIRCAIYIGCSPVVAISSLKTGLLPLTKDACVLGEITTHAYTGLFDEEERNRLVRSLGPNSKVILLTNHGALCCGETIEEAFFAACHIVQACETQLKLLPVGLDNLVLIPEESRKAIYEQSRRPPEDLEKKFAAVAAAEDGAATAEKDAAEAVPKVGSPPKWRVGGAEFEALMRMLDNAGYRTGYIYRHPLIKSDPPKPKNDVELPPAVSSLGYLLEEEELFRQGIWKKGDIRKGGDRSRWLNSPNVYQKVEVLETGTPDPKKITKWVAEGSPTHSTPVRIEDPLQFVPAGTNPREFKRVQQLIKDNRRADKISAGPQSHILEGVTWDEASRLKDATVSQAGDHVVMMGAASKGIIQRGFQHNATVYKAPYAKNPFDNVTDDELNEYKRTVERKKKSVHGEYTDTDFSESEAVLQAGTKKYPQSEPETEHQVIEIQTQQAPVPRQAEVVLSDALVSQLAQKYAFLYSPGQYMYACMKMAPLMHKVYVIHKVEPVSKHNYPPVNDGNMSIHHNESGAGFMAQESSVISSTPVRNALASVSLPEERNHSILGLSSTPYRTISHFGFNCPLITSPTILLHPEHRSIWQRVAEQREKVVSFIDLTTLSLDNRKLLNVVTSTHPTQCQSQSQSFISEKHIQLEVTPPKRKQRVYSATISSGLDDSLDELDSLMSGLAINMPRSREQDSGLYRSYTFLPSNHALPKDTDANNRDQTDRERPEAEQEESFHCAGDSGIGDSTGRRPRLATTSNDSSIQEAEAYTQGKHVKLTLSSSPTPTATQSPATIEILINVSLRNAECVQTVQTHEQEFRAKLERVIDEEIHYISQQLAFKQRQAELHEQQTTSRAPIATPSFTTMHPPAPASSSSMVHRSNSAPELCHTYSYVAVGDLSTKQDQASPQLPAEGEPLNDILSSLEKELERLLNSVVTAHMLHNKAIIHECRARFSQLADGIVSS |
| binds | Ribosomal protein S4 (protein, UniProt P41042 1-261) MARGPKKHLKRLAAPKAWMLDKLGGVFAPRPSTGPHKLRESLPLLIFLRNRLKYALNGAEVTKIVMQRLVKVDGKVRTDPTYPAGYMDVITLEKTGEFFRLVYDVKGRFVIHRISAEEAKYKLCKVKKTQLGAKGVPFLVTHDGRTIRYPDPLIHANDSVQVDIASGKITDYIKFDSGNLCMITGGRNLGRVGTVVNRERHPGSFDIVHIKDSQGHVFATRLTNVFIIGKGNKPYISLPKGKGVKLSIAEERDKRLAAKTH |

| Molecule | binding |
| --- | --- |
| Glutathione S transferase E1 (from UniProt A1ZB66) | binds |

No constants are given. Whether binding was seen depends on the method and setting. Binding seen in cells or lysates may run through a third protein. These calls come from enrichment with a bait or labelling near it, and not all partners need be listed. Sequences can lack the tags named with a protein.
